{"source": "patent US20220160704A2", "about": "“COMPOSITIONS FOR OPIATE AND OPIOID PREVENTION AND REVERSAL, AND METHODS OF THEIR USE” (Torralva Medical Therapeutics LLC, priority 2018, published 2022)", "origin": "cited, not measured here", "settings": "cited from earlier work", "data": [{"smiles": "C=CCN1CC[C@]23c4c5ccc(O)c4O[C@H]2C(=O)CC[C@@]3(O)[C@H]1C5.Cl", "note": "[Naloxone hydrochloride, 17-Allyl-4,5α-epoxy-3,14-dihydroxymorphinan-6-one hydrochloride]", "values": [{"measurement": "Complications of high dose in active opioid users", "setting": "e.g. 0.2 mg/kg", "result": "regularly precipitate severe cardiac arrhythmias, hemodynamic instability and pulmonary edema"}, {"measurement": "Duration of withdrawal symptoms in naloxone challenge test", "setting": "human, in vivo", "result": "5 to 10", "unit": "min"}]}]}
